Test results from PubChem BioAssay AID248 (DTP/NCI, 2004).
The list shows only some results of the screen, not a fair sample: it gathers tests that were run many times, whatever their T/C, doses with no T/C, and many T/C values between a quarter and a half above the control. Further doses and runs are listed elsewhere. T/C: endpoint of the treated group in % of that of the vehicle group. Some doses have a count of surviving animals in place of a T/C: the source files T/C as zero there, which appears to mark a toxic dose or a test without result, not a measured value. Some doses without a T/C left all or most animals alive at the check, yet need not have been tolerated: survival well below the control is almost never listed, so the zero probably covers shortened survival too. Survivors were counted at the toxicity check, usually on the fifth day, unless a day is given; later deaths do not show. Schedules are NCI's codes, read here as Q, the interval in days (D) or hours (H), X, the number of doses. Some schedule codes hold Z or #, which are not explained here. Some structures stand for samples that the source files as different forms (salt, stereo form or complex); doses refer to the form tested. For survival time, the PubChem record calls one and a half times the control and up active, and a quarter to a half above the control has no call in these data; cut-offs in other NCI protocols can differ. Some T/C values are followed by the survivors on the day toxicity was checked, most often the fifth; without a count, all were alive then.

Tested on: L1210 leukemia ip in BDF1 mice, survival T/C
Assay: NCI In Vivo Anticancer Drug Screen. Data for tumor model L1210 Leukemia (intraperitoneal) in B6D2F1 (BDF1) mice
Details: T/C endpoint: mean survival time, higher T/C = longer survival
[1] = dose: 100.0 mg/kg/injection, schedule: Q04DX003 (ip), vehicle: Klucel (hydroxypropylcellulose) (HPC)
[2] = dose: 200.0 mg/kg/injection, schedule: Q04DX003 (ip), vehicle: Klucel (hydroxypropylcellulose) (HPC)
[3] = dose: 400.0 mg/kg/injection, schedule: Q04DX003 (ip), vehicle: Klucel (hydroxypropylcellulose) (HPC)
[4] = dose: 200.0 mg/kg/injection, schedule: Q01DX001 (ip), vehicle: saline
[5] = dose: 400.0 mg/kg/injection, schedule: Q01DX001 (ip), vehicle: saline
[6] = dose: 400.0 mg/kg/injection, schedule: Q04DX003 (ip), vehicle: saline
[7] = dose: 400.0 mg/kg/injection, schedule: Q04DX003 (ip), vehicle: water
[8] = dose: 400.0 mg/kg/injection, schedule: Q01DX009 (ip), vehicle: saline with Tween-80
[9] = dose: 200.0 mg/kg/injection, schedule: Q01DX001 (ip), vehicle: Klucel (hydroxypropylcellulose) (HPC)
[10] = dose: 400.0 mg/kg/injection, schedule: Q01DX001 (ip), vehicle: Klucel (hydroxypropylcellulose) (HPC)
[11] = dose: 100.0 mg/kg/injection, schedule: Q01DX001 (ip), vehicle: carboxymethylcellulose (CMC)
[12] = dose: 400.0 mg/kg/injection, schedule: Q01DX009 (ip), vehicle: Klucel (hydroxypropylcellulose) (HPC)
[13] = dose: 400.0 mg/kg/injection, schedule: Q04DX002 (ip), vehicle: saline
[14] = dose: 150.0 mg/kg/injection, schedule: Q01DX001 (ip), vehicle: saline
[15] = dose: 300.0 mg/kg/injection, schedule: Q01DX001 (ip), vehicle: saline

CC(=O)C1C=NCC(C)(C)N=CC(C(C)=O)C(C)=NCCCN=C1C.[Ni] (centres undefined)
survivor count [1]: 2 of 6
survivor count [2]: 1 of 6
survivor count [3]: 0 of 6

NNC(=O)c1ccc(Cl)cc1Nc1ccc(F)cc1
survivor count (dose: 100.0 mg/kg/injection, schedule: Q04DX003 (ip), vehicle: saline): 2 of 6
survivor count (dose: 200.0 mg/kg/injection, schedule: Q01DX001 (ip), vehicle: saline sonified): 0 of 6
survivor count (dose: 400.0 mg/kg/injection, schedule: Q01DX001 (ip), vehicle: saline sonified): 0 of 6

CCN(CC)CCSSCCN(CC)CC.[Cl][Mn][Cl]
survivor count [4]: 3 of 6
survivor count [5]: 0 of 6

Cc1cc([N+](=O)[O-])cc(Br)c1N
T/C (dose: 100.0 mg/kg/injection, schedule: Q04DX003 (ip), vehicle: saline with Tween-80): 135 % of control

CN(C)C(=S)SSC(=S)N(C)C
survivor count (dose: 200.0 mg/kg/injection, schedule: Q01DX009 (ip), vehicle: Klucel (hydroxypropylcellulose) (HPC)): 6 of 6

Cc1cccc(CCSCCc2cccc(C)[n+]2[O-])[n+]1[O-]
survivor count [5]: 2 of 6

CC[C@@]1(O)C[C@H](OC2CC(N(C)C)C(OC3CC(O)C(O[C@@H]4O[C@@H](C)C(=O)C=C4N)C(C)O3)C(C)O2)c2c(cc3c(c2O)C(=O)c2c(O)ccc(O)c2C3=O)[C@H]1C(=O)OC (some centres undefined)
survivor count (dose: 0.1 mg/kg/injection, schedule: Q01DX009 (ip), vehicle: suspension in saline): 3 of 6
T/C (dose: 0.4 mg/kg/injection, schedule: Q05DX005 (ip), vehicle: saline): 129 % of control
T/C (dose: 0.4 mg/kg/injection, schedule: Q09DX009 (ip), vehicle: saline): 125 % of control
T/C (dose: 0.8 mg/kg/injection, schedule: Q03DX003 (ip), vehicle: saline): 129 % of control
T/C (dose: 0.8 mg/kg/injection, schedule: Q05DX005 (ip), vehicle: saline): 141 % of control
T/C (dose: 0.8 mg/kg/injection, schedule: Q09DX009 (ip), vehicle: saline): 136 % of control
survivor count (dose: 1.6 mg/kg/injection, schedule: Q01DX009 (ip), vehicle: suspension in saline): 4 of 6
T/C (dose: 1.6 mg/kg/injection, schedule: Q03DX003 (ip), vehicle: saline): 131 % of control
T/C (dose: 3.2 mg/kg/injection, schedule: Q01DX001 (ip), vehicle: saline): 138 % of control [5 of 6 alive]
survivor count (dose: 6.4 mg/kg/injection, schedule: Q01DX001 (ip), vehicle: saline): 3 of 6
survivor count (dose: 12.8 mg/kg/injection, schedule: Q01DX001 (ip), vehicle: saline): 3 of 6

CC(C)(C)NCc1cc(C(C)(C)C)cc(-c2ccccc2)c1O
survivor count [6]: 2 of 6

O=C(O)C1C(C(=O)Nc2cc(C(F)(F)F)ccc2Cl)C2(Cl)C(Cl)=C(Cl)C1(Cl)C2(Cl)Cl (centres undefined)
survivor count (dose: 25.0 mg/kg/injection, schedule: Q04DX003 (ip), vehicle: Klucel (hydroxypropylcellulose) (HPC)): 6 of 6
survivor count (dose: 100.0 mg/kg/injection, schedule: Q01DX009 (ip), vehicle: Klucel (hydroxypropylcellulose) (HPC)): 4 of 6
survivor count [2]: 5 of 6
survivor count [3]: 0 of 6

O=C1NC(=O)C(c2cccs2)(c2cccs2)N1
survivor count [7]: 1 of 6

CCCCCC(/C=C/C1C=CC(=O)C1C/C=C/CCCC(=O)OC)OC(C)=O (centres undefined)
survivor count [8]: 2 of 6

COC(=O)c1ccccc1OC(=O)Nc1ccc(SC)cc1
T/C (dose: 200.0 mg/kg/injection, schedule: Q04DX002 (ip), vehicle: saline with Tween-80): 125 % of control

O=C(CI)Nc1ccc2oc(=O)c(C(=O)O)cc2c1
survivor count [9]: 0 of 6
survivor count [10]: 0 of 6

N/C(=N\O)c1cccnc1
survivor count [8]: 0 of 6
survivor count [7]: 3 of 6

CNC/C(C)=C/Br
survivor count (dose: 400.0 mg/kg/injection, schedule: Q04DX003 (ip), vehicle: acetone): 2 of 6
survivor count (dose: 400.0 mg/kg/injection, schedule: Q04DX003 (ip), vehicle: saline with Tween-80): 2 of 6

CCCCN=C=NCCC[N+](C)(C)C
survivor count [3]: 0 of 6

CCOc1ccc(/C=N/Nc2nnc(N/N=C/c3ccc(OCC)c(OCC)c3)c3ccccc23)cc1OCC
survivor count [11]: 3 of 4
survivor count (dose: 200.0 mg/kg/injection, schedule: Q01DX001 (ip), vehicle: carboxymethylcellulose (CMC)): 2 of 4
survivor count (dose: 400.0 mg/kg/injection, schedule: Q01DX001 (ip), vehicle: carboxymethylcellulose (CMC)): 1 of 4

CSc1nc(N)nc(N)n1
survivor count [12]: 0 of 6

CN(C)C1=C(Cl)C(=O)c2ccccc2C1=O
survivor count [4]: 2 of 4
survivor count [5]: 0 of 4

CCCCC(=O)N1C(C)CCC1C (centres undefined)
survivor count [13]: 1 of 3

O=C(OC1CC2CC1C1C=CCC21)c1ccc([N+](=O)[O-])cc1 (centres undefined)
T/C [11]: 125 % of control

CN(C)c1ccc(C2NC(c3ccccc3)c3c(ccc4ccccc34)O2)cc1 (centres undefined)
survivor count (dose: 200.0 mg/kg/injection, schedule: Q04DX003 (ip), vehicle: saline): 6 of 6

O=C1OCC/C1=C1/CCOC1
survivor count (dose: 200.0 mg/kg/injection, schedule: Q01DX009 (ip), vehicle: saline): 0 of 3

Cc1ccc(C[N+](C)(C)C)cc1
survivor count (dose: 75.0 mg/kg/injection, schedule: Q01DX001 (ip), vehicle: saline): 2 of 6
survivor count [14]: 0 of 6
survivor count [15]: 0 of 6

CSC(=N)N
survivor count [5]: 2 of 6
survivor count [13]: 2 of 3

CCCCNC(C)(C)C(SSC(c1cccs1)C(C)(C)NCCCC)c1cccs1 (centres undefined)
survivor count (dose: 200.0 mg/kg/injection, schedule: Q04DX003 (ip), vehicle: saline sonified): 0 of 6
survivor count (dose: 400.0 mg/kg/injection, schedule: Q04DX003 (ip), vehicle: saline sonified): 0 of 6

Oc1ccc(Br)cc1/C=N/NC(=S)Nc1cccc2cccnc12
survivor count (dose: 100.0 mg/kg/injection, schedule: Q01DX001 (ip), vehicle: saline): 4 of 4

O=C(c1ccccc1)C(c1ccccc1)C(O)(C(F)(F)F)C(F)(F)F (centres undefined)
survivor count [8]: 6 of 6

COc1cc2cc3c4ccccc4cc[n+]3c(C)c2cc1OC (tested in a mixture with another compound)
survivor count (dose: 80.0 mg/kg/injection, schedule: Q01DX009 (ip), vehicle: saline): 4 of 6

Nc1cc(Cl)cc(Cl)c1C(=O)O
survivor count (dose: 200.0 mg/kg/injection, schedule: Q01DX009 (ip), vehicle: other): 2 of 6
survivor count [6]: 0 of 6

S=C(c1ccco1)N1CCOCC1
survivor count (dose: 300.0 mg/kg/injection, schedule: Q01DX009 (ip), vehicle: saline with Tween-80): 4 of 6

CCC(=O)Nc1cccc(C)c1C
survivor count [12]: 5 of 6

CCC(C)c1cc([N+](=O)[O-])cc([N+](=O)[O-])c1O (centres undefined)
survivor count [1]: 1 of 6
survivor count [2]: 0 of 6
survivor count [3]: 0 of 6

O=c1ccc2ccccc2o1
survivor count (dose: 250.0 mg/kg/injection, schedule: Q01DX Z (ip), vehicle: carboxymethylcellulose (CMC)): 1 of 6
survivor count (dose: 375.0 mg/kg/injection, schedule: Q01DX Z (ip), vehicle: carboxymethylcellulose (CMC)): 0 of 6
survivor count (dose: 400.0 mg/kg/injection, schedule: Q01DX001 (ip), vehicle: other): 2 of 4

CC1CCC/C(=N/Nc2ccc3ccccc3n2)C1 (centres undefined)
survivor count [14]: 0 of 6
survivor count [15]: 0 of 6

S=C(Cc1ccc2ccccc2c1)N1CCOCC1
survivor count (dose: 200.0 mg/kg/injection, schedule: Q01DX001 (ip), vehicle: saline with Tween-80): 6 of 6
survivor count (dose: 400.0 mg/kg/injection, schedule: Q01DX001 (ip), vehicle: saline with Tween-80): 6 of 6

CC(=O)c1cccnc1
survivor count [5]: 0 of 4

ONC12CC3CC(CC(C3)C1)C2
survivor count [9]: 3 of 6
survivor count [10]: 0 of 6
